Like-named read-outs stand apart in the source and are kept apart here. No constants are given. Whether binding was seen depends on the method and setting. Binding seen in cells or lysates may run through a third protein. Some entries that bind do so weakly or less than the wild type.
Assays:
Assay in all cases: co-IP
[1] = biological target: T1, CDYL, endogenous in mouse testis (mouse (endogenous in testis)) (UniProt Q9WTK2)
T1 sequence: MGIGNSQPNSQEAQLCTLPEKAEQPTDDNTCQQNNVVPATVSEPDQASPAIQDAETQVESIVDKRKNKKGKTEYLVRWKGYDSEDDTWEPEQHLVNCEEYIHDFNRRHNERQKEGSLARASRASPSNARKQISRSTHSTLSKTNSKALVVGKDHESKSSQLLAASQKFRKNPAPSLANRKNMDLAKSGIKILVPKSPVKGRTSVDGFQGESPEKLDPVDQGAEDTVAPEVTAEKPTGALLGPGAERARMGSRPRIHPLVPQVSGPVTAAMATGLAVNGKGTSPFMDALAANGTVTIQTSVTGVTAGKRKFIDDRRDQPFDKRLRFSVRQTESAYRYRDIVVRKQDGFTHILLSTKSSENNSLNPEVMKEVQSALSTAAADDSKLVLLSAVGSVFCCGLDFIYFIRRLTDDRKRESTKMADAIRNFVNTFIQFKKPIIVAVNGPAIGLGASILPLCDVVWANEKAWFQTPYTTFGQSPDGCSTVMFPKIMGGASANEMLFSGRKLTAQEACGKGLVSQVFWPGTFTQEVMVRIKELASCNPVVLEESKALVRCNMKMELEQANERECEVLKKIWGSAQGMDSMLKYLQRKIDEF

Protein sequences, listed by entry. Tags and fused reporters are not part of them.
UniProt Q96EQ9: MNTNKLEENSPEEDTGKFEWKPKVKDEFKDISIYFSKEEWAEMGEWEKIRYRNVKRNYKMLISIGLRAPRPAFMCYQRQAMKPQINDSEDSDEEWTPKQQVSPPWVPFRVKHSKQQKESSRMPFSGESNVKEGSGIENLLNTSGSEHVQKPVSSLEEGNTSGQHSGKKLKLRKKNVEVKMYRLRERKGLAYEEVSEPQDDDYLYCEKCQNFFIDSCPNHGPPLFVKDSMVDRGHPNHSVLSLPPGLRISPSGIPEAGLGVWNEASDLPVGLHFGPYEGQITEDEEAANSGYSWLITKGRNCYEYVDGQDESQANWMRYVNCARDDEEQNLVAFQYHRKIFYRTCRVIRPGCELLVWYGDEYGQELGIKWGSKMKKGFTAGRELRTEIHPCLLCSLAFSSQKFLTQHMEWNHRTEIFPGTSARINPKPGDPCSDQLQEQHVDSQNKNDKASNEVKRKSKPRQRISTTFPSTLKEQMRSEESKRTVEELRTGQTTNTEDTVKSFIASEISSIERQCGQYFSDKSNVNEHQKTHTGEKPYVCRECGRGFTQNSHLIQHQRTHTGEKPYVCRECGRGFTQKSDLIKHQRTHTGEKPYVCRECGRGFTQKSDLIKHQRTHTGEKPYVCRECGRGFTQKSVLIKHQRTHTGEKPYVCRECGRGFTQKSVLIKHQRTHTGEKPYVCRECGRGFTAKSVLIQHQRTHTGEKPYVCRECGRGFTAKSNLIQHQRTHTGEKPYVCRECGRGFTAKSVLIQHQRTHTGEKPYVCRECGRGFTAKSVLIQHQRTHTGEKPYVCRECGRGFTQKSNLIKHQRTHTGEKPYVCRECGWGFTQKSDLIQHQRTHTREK
UniProt Q9Z148: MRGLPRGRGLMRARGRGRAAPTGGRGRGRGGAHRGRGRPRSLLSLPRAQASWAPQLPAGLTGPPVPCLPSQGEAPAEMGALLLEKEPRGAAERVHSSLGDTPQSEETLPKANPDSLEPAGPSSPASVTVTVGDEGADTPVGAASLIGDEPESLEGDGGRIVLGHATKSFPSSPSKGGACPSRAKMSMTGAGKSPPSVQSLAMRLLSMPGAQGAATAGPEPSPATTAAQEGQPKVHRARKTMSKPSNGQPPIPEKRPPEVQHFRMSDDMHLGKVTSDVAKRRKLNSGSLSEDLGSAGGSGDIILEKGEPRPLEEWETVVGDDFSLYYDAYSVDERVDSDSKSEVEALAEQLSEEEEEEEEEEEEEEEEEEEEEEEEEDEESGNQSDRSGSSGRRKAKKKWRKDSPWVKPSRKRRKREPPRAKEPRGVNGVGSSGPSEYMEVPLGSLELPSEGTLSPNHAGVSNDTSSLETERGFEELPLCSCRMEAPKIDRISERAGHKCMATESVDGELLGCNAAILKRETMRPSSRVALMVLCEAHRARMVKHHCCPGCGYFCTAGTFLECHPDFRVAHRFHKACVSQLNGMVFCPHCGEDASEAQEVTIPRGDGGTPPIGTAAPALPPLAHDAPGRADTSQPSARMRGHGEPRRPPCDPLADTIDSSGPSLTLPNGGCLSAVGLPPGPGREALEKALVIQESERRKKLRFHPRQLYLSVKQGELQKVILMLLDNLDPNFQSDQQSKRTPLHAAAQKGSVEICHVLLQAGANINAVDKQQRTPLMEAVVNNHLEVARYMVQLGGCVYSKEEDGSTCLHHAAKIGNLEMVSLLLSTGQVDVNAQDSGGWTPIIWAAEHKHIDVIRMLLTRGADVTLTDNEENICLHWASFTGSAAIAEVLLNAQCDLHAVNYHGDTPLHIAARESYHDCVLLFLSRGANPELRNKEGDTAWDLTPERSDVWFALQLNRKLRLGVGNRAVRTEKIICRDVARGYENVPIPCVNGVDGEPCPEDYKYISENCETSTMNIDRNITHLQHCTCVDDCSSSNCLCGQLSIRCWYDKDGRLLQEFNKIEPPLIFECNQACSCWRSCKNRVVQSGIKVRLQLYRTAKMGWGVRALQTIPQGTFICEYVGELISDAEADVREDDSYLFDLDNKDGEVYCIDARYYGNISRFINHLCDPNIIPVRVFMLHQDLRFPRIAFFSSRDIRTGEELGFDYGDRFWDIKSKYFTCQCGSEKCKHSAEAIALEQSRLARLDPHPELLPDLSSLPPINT

[2] = biological target: T2, SYCP3, chromosomal axis/SC lateral element protein, endogenous in mouse testis (mouse (endogenous in testis)) (UniProt P70281)
T2 sequence: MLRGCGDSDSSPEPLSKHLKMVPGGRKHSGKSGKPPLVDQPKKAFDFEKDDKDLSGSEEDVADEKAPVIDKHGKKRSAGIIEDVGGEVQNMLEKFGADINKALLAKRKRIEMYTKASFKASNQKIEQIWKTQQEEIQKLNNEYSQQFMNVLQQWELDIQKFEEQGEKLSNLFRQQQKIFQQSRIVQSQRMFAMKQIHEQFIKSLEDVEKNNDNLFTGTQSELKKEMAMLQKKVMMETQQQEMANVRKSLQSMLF

[3] = biological target: T3, SYCP1, SC central element protein, endogenous in mouse testis (mouse (endogenous in testis)) (UniProt Q62209)
T3 sequence: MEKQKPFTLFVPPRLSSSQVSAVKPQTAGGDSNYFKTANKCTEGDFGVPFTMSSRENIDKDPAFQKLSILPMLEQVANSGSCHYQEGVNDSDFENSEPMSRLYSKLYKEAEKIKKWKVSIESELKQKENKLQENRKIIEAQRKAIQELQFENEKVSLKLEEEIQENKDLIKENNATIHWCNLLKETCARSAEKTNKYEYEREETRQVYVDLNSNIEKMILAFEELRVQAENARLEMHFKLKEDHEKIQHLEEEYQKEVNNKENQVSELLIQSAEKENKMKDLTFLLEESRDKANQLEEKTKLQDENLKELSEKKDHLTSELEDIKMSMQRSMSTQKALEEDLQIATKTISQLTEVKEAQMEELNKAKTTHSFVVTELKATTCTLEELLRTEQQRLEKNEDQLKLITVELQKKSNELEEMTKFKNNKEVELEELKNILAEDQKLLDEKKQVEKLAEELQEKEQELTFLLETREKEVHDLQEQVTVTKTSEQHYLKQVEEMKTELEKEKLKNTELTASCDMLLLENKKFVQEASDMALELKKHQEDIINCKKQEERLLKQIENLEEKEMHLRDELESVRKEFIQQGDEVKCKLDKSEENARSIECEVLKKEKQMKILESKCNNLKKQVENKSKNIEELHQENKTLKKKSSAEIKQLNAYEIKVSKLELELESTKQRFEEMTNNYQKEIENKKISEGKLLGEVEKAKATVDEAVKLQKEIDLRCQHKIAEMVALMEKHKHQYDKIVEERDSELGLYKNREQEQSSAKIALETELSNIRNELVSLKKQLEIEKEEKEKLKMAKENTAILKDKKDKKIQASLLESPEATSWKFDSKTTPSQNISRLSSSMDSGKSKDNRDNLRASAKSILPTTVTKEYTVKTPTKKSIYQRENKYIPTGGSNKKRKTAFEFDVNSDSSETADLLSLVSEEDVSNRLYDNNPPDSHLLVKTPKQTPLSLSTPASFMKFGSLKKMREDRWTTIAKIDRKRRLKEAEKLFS

[4] = biological target: EWSR1, endogenous in mouse testis (mouse (endogenous in testis)) (UniProt Q61545)
[5] = biological target: EWSR1, endogenous in mouse testis (mouse (endogenous in testis)) (UniProt Q61545); remark: listed apart in the source
[6] = biological target: PRDM9, endogenous in mouse spermatocytes (mouse (endogenous in testis)) (UniProt Q96EQ9)
[7] = biological target: T4, SYCP3, chromosomal axis/SC lateral element protein, endogenous in mouse testis (mouse (endogenous in testis)), P70281; conditions: remark: other sources report otherwise
T4 chain: T2 sequence

[8] = biological target: T5, SYCP1, SC central element protein, endogenous in mouse testis (mouse (endogenous in testis)), Q62209; conditions: remark: other sources report otherwise
T5 chain: T3 sequence

For “EWSR1, endogenous in mouse testis (from UniProt Q61545 1-655)”, the binding [1] was “no binding”.

In the case of “PRDM9, endogenous in mouse spermatocytes (from UniProt Q96EQ9 1-843)”, the binding [2] is reported as “binds” and the binding [3] is reported as “binds”.

For “EHMT2, endogenous in mouse testis (from UniProt Q9Z148 1-1263)”, the binding [4] was “no binding”, the binding [3] was “binds weakly” and the binding [1] was “binds”.

B1: SYCP3, chromosomal axis/SC lateral element protein, endogenous in mouse testis (protein, UniProt P70281 1-254)
chain: T2 sequence
For B1, the binding [5] was “binds weakly” and the binding [6] was “binds”.

B2: SYCP1, SC central element protein, endogenous in mouse testis (protein, UniProt Q62209 1-993)
chain: T3 sequence
For B2, the binding [5] was “binds weakly” and the binding [6] was “binds”.

B3: EWSR1, endogenous in mouse testis, Q61545 1-655 (protein)
chain: MASTDYSTYSQAAAQQGYSAYTAQPTQGYAQTTQAYGQQSYGTYGQPTDVSYTQAQTTATYGQTAYATSYGQPPTGYSTPTAPQAYSQPVQGYGTGTYDSTTATVTTTQASYAAQTAYGTQPAYPTYGQQPTATAPTRPQDGNKPAETSQPQSSTGGYNQPSLGYGQSNYSYPQVPGSYPMQPVTAPPSYPPTSYSSSQPTSYDQSSYSQQNTYGQPSSYGQQSSYGQQSSYGQQPPTSYPPQTGSYSQAPSQYSQQSSSYGQQSSFRQDHPSSMGVYGQESGGFSGPGENRSLSGPDNRGRGRGGFDRGGMSRGGRGGGRGGLGAGERGGFNKPGGPMDEGPDLDLGLPIDPDEDSDNSAIYVQGLNDNVTLDDLADFFKQCGVVKMNKRTGQPMIHIYLDKETGKPKGDATVSYEDPPTAKAAVEWFDGKDFQGSKLKVSLARKKPPMNSMRGGMPPREGRGMPPPLRGGPGGPGGPGGPMGRMGGRGGDRGGFPPRGPRGSRGNPSGGGNVQHRAGDWQCPNPGCGNQNFAWRTECNQCKAPKPEGFLPPPFPPPGGDRGRGGPGGMRGGRGGLMDRGGPGGMFRGGRGGDRGGFRGGRGMDRGGFGGGRRGGPGGPPGPLMEQMGGRRGGRGGPGKMDKGEHRQERRDRPY
In the case of B3, the binding [7] is reported as “binds” and the binding [8] is reported as “binds”.

B4: CDYL, endogenous in mouse testis (protein, UniProt Q9WTK2 1-593)
chain: T1 sequence
B4 was tested, and the binding [5] was “no binding”.

Reference: article doi:10.1101/056713
